# Data as given in patent US7304075B2, “Stabilized liquid preparation” (Daiichi Pharmaceutical Co., Ltd., priority 2001, dated 2007).
# For at least one compound, name, drawing or mass did not settle the structure.
# Assay: Light stability of aqueous levofloxacin solution (white fluorescent tube irradiation)
# Type: physicochemical
# Conditions: 2 mg/ml aqueous solution
# [1] = Irradiation (600,000 lux·hr), NaCl absent
# [2] = Irradiation (600,000 lux·hr), NaCl present (0.9%)
structure (smiles),measurement,setting,value
C[C@H]1COc2c(N3CCN(C)CC3)c(F)cc3c(=O)c(C(=O)O)cn1c23 [levofloxacin],Changes in pH,"Initial, NaCl absent",4.39
same,Related Substances (total %),"Initial, NaCl absent",0.16%
same,Changes in pH,"Initial, NaCl present (0.9%)",4.27
same,Related Substances (total %),"Initial, NaCl present (0.9%)",0.15%
same,Changes in pH,[1],3.81
same,Related Substances (total %),[1],3.94%
same,Changes in pH,[2],3.94
same,Related Substances (total %),[2],2.45%
